This test has as its target integrin α5 (as used in co-immunoprecipitation) (UniProt P08648). The test can be described thus: co-IP; co-immunoprecipitation/western blotting; no details given, told only in the discussion. Background: A western blot detects proteins with antibodies after separation by electrophoresis.

Amino acid sequences for entries named in this document (tags omitted). Residues count along the entry.
UniProt P08648, residues 42-1049: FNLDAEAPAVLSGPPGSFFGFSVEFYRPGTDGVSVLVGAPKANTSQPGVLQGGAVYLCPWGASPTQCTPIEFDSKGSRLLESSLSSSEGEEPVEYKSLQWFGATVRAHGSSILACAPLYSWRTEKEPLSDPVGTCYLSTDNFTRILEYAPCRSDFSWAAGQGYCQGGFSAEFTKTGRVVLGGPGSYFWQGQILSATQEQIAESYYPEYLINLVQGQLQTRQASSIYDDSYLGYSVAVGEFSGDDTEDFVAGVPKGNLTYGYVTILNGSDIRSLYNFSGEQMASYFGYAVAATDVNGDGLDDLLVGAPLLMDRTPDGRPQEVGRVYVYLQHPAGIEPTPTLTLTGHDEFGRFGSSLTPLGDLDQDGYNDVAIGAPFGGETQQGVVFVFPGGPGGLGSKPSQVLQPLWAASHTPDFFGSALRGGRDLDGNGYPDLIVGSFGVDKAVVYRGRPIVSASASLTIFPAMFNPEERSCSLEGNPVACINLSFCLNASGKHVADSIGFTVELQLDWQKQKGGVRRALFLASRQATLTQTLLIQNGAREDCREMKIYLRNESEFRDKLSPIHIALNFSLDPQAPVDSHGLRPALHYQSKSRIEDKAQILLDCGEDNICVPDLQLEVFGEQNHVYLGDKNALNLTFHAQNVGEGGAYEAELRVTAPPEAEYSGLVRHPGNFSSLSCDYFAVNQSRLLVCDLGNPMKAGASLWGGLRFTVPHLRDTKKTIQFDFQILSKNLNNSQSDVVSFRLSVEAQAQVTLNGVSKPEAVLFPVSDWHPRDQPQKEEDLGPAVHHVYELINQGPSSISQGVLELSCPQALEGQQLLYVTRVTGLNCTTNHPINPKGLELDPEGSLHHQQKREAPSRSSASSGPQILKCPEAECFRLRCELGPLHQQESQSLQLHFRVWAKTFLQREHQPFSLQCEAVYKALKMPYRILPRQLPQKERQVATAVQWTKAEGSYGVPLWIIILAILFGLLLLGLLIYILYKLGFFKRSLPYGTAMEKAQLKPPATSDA
UniProt Q5U316: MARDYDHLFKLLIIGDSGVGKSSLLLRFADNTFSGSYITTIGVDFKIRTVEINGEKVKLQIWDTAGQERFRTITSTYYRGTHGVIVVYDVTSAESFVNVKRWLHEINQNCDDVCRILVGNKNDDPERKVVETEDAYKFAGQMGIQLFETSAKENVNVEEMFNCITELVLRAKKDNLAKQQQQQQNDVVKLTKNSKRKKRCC

No constants are given. Whether binding was seen depends on the method and setting. Binding seen in cells or lysates may run through a third protein.

“Rab35 (as used in co-immunoprecipitation) (from UniProt Q5U316 1-201)”: the binding result is reported as “no binding”.

Source of the values: article PMC10397319, “The phosphatidylinositol (4,5)-bisphosphate-Rab35 axis regulates migrasome formation” (Cell Research, 2023).
